Experimental data: PubChem BioAssay AID1053208 (Peter MacCallum Cancer Centre, 2014)
The deposit covers about 17,000 reagents; shown is a random part of them. 788 of all reagents (4.7%) count as active. 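Calls rest on z-score classes alone; an extra cut-off of viability at most 70% of control was not applied to them.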 A number with no mark means an inactive call.

Assay: 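Genes whose silencing cuts survival of bone tumour cells only with doxorubicin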 (primary screen)
System: mouse osteosarcoma cells, early-passage culture from an engineered mouse model of fibroblastic bone tumour
Reagents: siRNA pool against mouse genes, 40 nM
Timing: about 120 h (48 h before drug, then 72 h with drug)
Conditions: doxorubicin 100 nM for 72 h, roughly 30-40% inhibitory dose
Detection: 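Viability read as ATP luminescence after 72 h of 100 nM doxorubicin or none, duplicate wells averaged, scaled to non-targeting siRNA, then expressed as robust z-scores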
Direction: viability z-score with doxorubicin and doxorubicin viability vs non-targeting: higher = more viable cells under doxorubicin; viability z-score without drug: higher = more viable cells with knock-down alone; z-score of drug to no-drug ratio: higher = less drug sensitisation by knock-down
Rule for the call: 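Called active if knock-down leaves viability unchanged without drug (z within -2 to 2) but lowers it with doxorubicin (z at or under -2)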

| target gene | PubChem SID | combined z-score class | viability z-score with doxorubicin | viability z-score without drug | z-score of drug to no-drug ratio | doxorubicin viability vs non-targeting |
| --- | --- | --- | --- | --- | --- | --- |
| Trappc13 | SID152336457 | no change with or without drug | 1.8 | 0.84 | 1.35 | 1.1 |
| Arhgef4 | SID152271860 | no change with or without drug | -1.24 | -1.52 | -0.11 | 0.83 |
| Clspn | SID152268805 | no change with or without drug | -1.57 | 0.51 | -1.8 | 0.8 |
| Herpud2 | SID152321908 | no change with or without drug | 0.34 | -0.17 | 0.56 | 0.97 |
| Cmpk2 | SID152320978 | no change with or without drug | -0.9 | -1.18 | 0 | 0.86 |
| Rnf138rt1 | SID152334968 | no change with or without drug | -0.9 | 0.84 | -1.35 | 0.86 |
| Tmem68 | SID152314992 | no change with or without drug | -0.67 | 1.18 | -1.35 | 0.88 |
| Or5v1 | SID152263360 | low cell count with doxorubicin only (active) | -2.47 | 0.51 | -2.81 | 0.72 |
| Trim10 | SID152285164 | no change with or without drug | -0.22 | 0.51 | -0.45 | 0.92 |
| Smo | SID152340313 | no change with or without drug | -0.45 | -1.52 | 0.79 | 0.9 |
| Naa50 | SID152274554 | no change with or without drug | -1.91 | -1.52 | -0.9 | 0.77 |
| Tm2d1 | SID152288368 | no change with or without drug | -0.45 | 1.01 | -1.01 | 0.9 |
| Tfcp2l1 | SID152262027 | no change with or without drug | 0.9 | 1.69 | -0.11 | 1.02 |
| Cyp4b1 | SID152267407 | no change with or without drug | 0.9 | 0.17 | 0.9 | 1.02 |
| Zbtb7a | SID152327701 | no change with or without drug | -0.22 | 0.51 | -0.45 | 0.92 |
| H3c8 | SID152270019 | no change with or without drug | 1.24 | 0.51 | 1.01 | 1.05 |
| Tbc1d8b | SID152321404 | no change with or without drug | 0.34 | 0.51 | 0.11 | 0.97 |
| Nodal | SID152296872 | no change with or without drug | -0.45 | -1.85 | 1.01 | 0.9 |
| Vps4a | SID152283385 | no change with or without drug | 1.35 | 1.35 | 0.56 | 1.06 |
| Rad51ap1 | SID152315793 | no change with or without drug | 0 | 0.17 | 0 | 0.94 |
| Pcdhb20 | SID152262852 | no change with or without drug | 1.57 | 0.84 | 1.12 | 1.08 |
| Zfyve9 | SID152337876 | no change with or without drug | 0.22 | 0.51 | 0 | 0.96 |
| Timm44 | SID152294959 | low cell count with doxorubicin only (active) | -3.6 | 0.34 | -3.82 | 0.62 |
| Zfp184 | SID152285999 | low cell count with doxorubicin only (active) | -3.15 | 1.18 | -3.71 | 0.66 |
| P2rx1 | SID152300975 | no change with or without drug | 0.22 | -0.34 | 0.56 | 0.96 |
| Eef1a2 | SID152301665 | no change with or without drug | -0.22 | 1.52 | -1.12 | 0.92 |
| Kctd12 | SID152318494 | low cell count with doxorubicin only (active) | -3.6 | -1.85 | -2.7 | 0.62 |
| Mrps17 | SID152338205 | low cell count without drug only | -0.67 | -2.53 | 1.35 | 0.88 |
| Pfkp | SID152280172 | high cell count without drug only | 0.67 | 3.71 | -1.46 | 1 |
| Ube2b | SID152317826 | no change with or without drug | -1.12 | -0.17 | -1.01 | 0.84 |
| Klc1 | SID152314562 | no change with or without drug | 0 | -0.84 | 0.67 | 0.94 |
| Drd2 | SID152315737 | no change with or without drug | -0.67 | -0.67 | -0.11 | 0.88 |
| Sox30 | SID152324586 | no change with or without drug | -0.22 | -1.69 | 1.12 | 0.92 |
| Or8b41 | SID152335571 | no change with or without drug | 0.79 | 1.52 | -0.11 | 1.01 |

Laid out differently: 3 of the entries above
target gene	PubChem SID	combined z-score class	viability z-score with doxorubicin	viability z-score without drug	z-score of drug to no-drug ratio	doxorubicin viability vs non-targeting
Ube2b	SID152317826	no change with or without drug	-1.12	-0.17	-1.01	0.84
Klc1	SID152314562	no change with or without drug	0	-0.84	0.67	0.94
Drd2	SID152315737	no change with or without drug	-0.67	-0.67	-0.11	0.88
